Values quoted from earlier work, collected in patent US6083922A (priority 1997, dated 2000).
At least one read-out could not be matched to a standard name with certainty.

Conditions: Rev. Infect. Dis., 3:67 (1981); cited from earlier work

| SMILES | penetration into bronchial secretions |
| --- | --- |
| NCC[C@H](O)C(=O)N[C@@H]1C[C@H](N)[C@@H](O[C@H]2O[C@H](CN)[C@@H](O)[C@H](O)[C@H]2O)[C@H](O)[C@H]1O[C@H]1O[C@H](CO)[C@@H](O)[C@H](N)[C@H]1O [amicacin] | about 12 % of the peak serum concentration |
| NC[C@H]1O[C@H](O[C@H]2[C@H](O)[C@@H](O[C@H]3O[C@H](CO)[C@@H](O)[C@H](N)[C@H]3O)[C@H](N)C[C@@H]2N)[C@H](O)[C@@H](O)[C@@H]1O [kanamycin] | about 12 % of the peak serum concentration |
